# Assay results: the supplement of paper PMC4604168 (melanoma cell lines)
# Some of the results follow. Repeats are few or missing, and single values can be far off.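 Imaging used 1,536-well plates; nuclei positive for cleaved PARP by antibody were divided by total DNA-stained nuclei to yield the apoptosis fraction. Doses for screening kept most cells viable, and cell lines differ markedly in resting and induced cleaved-PARP levels.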
# Assays:
# Assay in all cases: cleaved PARP positive nuclei fraction relative to DMSO control; melanoma cells; higher = more apoptosis
# Conditions in all cases: library dose: low library concentration; 72 h
# 501Mel = test system: 501Mel
# A101D = test system: A101D
# A2058 = test system: A2058
# C32 = test system: C32
# CBRC008 = test system: CBRC008 (line from a melanoma biopsy)
# CBRC014 = test system: CBRC014 (line from a melanoma biopsy)
# CBRC016 = test system: CBRC016 (line from a melanoma biopsy)
# CBRC017 = test system: CBRC017 (line from a melanoma biopsy)
# COLO792 = test system: COLO792
# COLO800 = test system: COLO800
# COLO829 = test system: COLO829
# G361 = test system: G361
# IPC-298 = test system: IPC-298
# IST-MEL1 = test system: IST-MEL1
# LB2518-MEL = test system: LB2518-MEL
# LOXIMVI = test system: LOXIMVI
# A375 = test system: A375
# CBRC034 = test system: CBRC034 (line from a melanoma biopsy)
# MEL-HO = test system: MEL-HO
SMILES,cleaved PARP positive nuclei fraction (501Mel),cleaved PARP positive nuclei fraction (A101D),cleaved PARP positive nuclei fraction (A2058),cleaved PARP positive nuclei fraction (C32),cleaved PARP positive nuclei fraction (CBRC008),cleaved PARP positive nuclei fraction (CBRC014),cleaved PARP positive nuclei fraction (CBRC016),cleaved PARP positive nuclei fraction (CBRC017),cleaved PARP positive nuclei fraction (COLO792),cleaved PARP positive nuclei fraction (COLO800),cleaved PARP positive nuclei fraction (COLO829),cleaved PARP positive nuclei fraction (G361),cleaved PARP positive nuclei fraction (IPC-298),cleaved PARP positive nuclei fraction (IST-MEL1),cleaved PARP positive nuclei fraction (LB2518-MEL),cleaved PARP positive nuclei fraction (LOXIMVI),cleaved PARP positive nuclei fraction (A375),cleaved PARP positive nuclei fraction (CBRC034),cleaved PARP positive nuclei fraction (MEL-HO)
"O=C(O)[C@@H]1[O][Sb](=[O])([O][Sb]2(=[O])[O][C@H]([C@H](O)CO)[C@H](O)[C@H](C(=O)O)[O]2)[O][C@H]([C@H](O)CO)[C@@H]1O (some centres undefined) [stibogluconate] + COc1ccc(-c2ccc3c(N4CCOCC4)nc(N4C[C@@H](C)O[C@@H](C)C4)nc3n2)cc1CO [KU0063794] (first compound 2 µM, partner dose 0.02 µM)",36.6%,22.8%,122%,33.8%,104%,108%,40.4%,79.5%,93.7%,82.6%,110%,135%,21.4%,62.9%,68.2%,199%,–,–,–
"C=C(c1ccc(C(=O)O)cc1)c1cc2c(cc1C)C(C)(C)CCC2(C)C [Bexarotene] + COc1cc2ncnc(Nc3ccc(Oc4ccccc4)cc3)c2cc1OC [SrcI1] (first compound 2 µM, partner dose 2 µM)",208%,7.4%,268%,38.2%,225%,85.2%,219%,115%,75%,17.8%,182%,168%,155%,123%,80.9%,54.1%,–,–,–
"Nc1ccn([C@@H]2O[C@H](CO)[C@@H](O)C2(F)F)c(=O)n1 [gemcitabine] + CCN(CC)CCCCNc1ncc2cc(-c3cc(OC)cc(OC)c3)c(NC(=O)NC(C)(C)C)nc2n1 [PD173074] (first compound 0.0004 µM, partner dose 0.1 µM)",30.7%,25.4%,62.7%,79.9%,253%,148%,69.7%,190%,99.7%,172%,90.3%,47.1%,306%,171%,75%,135%,–,–,–
"CO[C@H]1C[C@@H]2CC[C@@H](C)[C@@](O)(O2)C(=O)C(=O)N2CCCC[C@H]2C(=O)O[C@H]([C@H](C)C[C@@H]2CC[C@@H](OCCO)[C@H](OC)C2)CC(=O)[C@H](C)/C=C(\C)[C@@H](O)[C@@H](OC)C(=O)[C@H](C)C[C@H](C)/C=C/C=C/C=C/1C [everolimus] + COc1cc(N2CCC(N3CCN(C)CC3)CC2)ccc1Nc1ncc(Cl)c(Nc2ccccc2S(=O)(=O)C(C)C)n1 [NVP-TAE684] (first compound 0.02 µM, partner dose 0.08 µM)",148%,32.2%,212%,221%,174%,110%,18.4%,98.3%,230%,248%,52.3%,159%,121%,203%,101%,140%,–,–,–
"Nc1nc(F)nc2c1ncn2[C@@H]1O[C@H](CO)[C@@H](O)[C@@H]1O [fludarabine] + Cn1cc(/C=C2\C(=O)Nc3cccnc32)c2ccccc21 [GW441756] (first compound 0.2 µM, partner dose 0.4 µM)",746%,30.9%,9.82%,152%,32.2%,82.9%,129%,94.6%,145%,46.8%,174%,87.8%,118%,43.3%,73.6%,132%,–,–,–
"CO[C@H]1C[C@@H]2CC[C@@H](C)[C@@](O)(O2)C(=O)C(=O)N2CCCC[C@H]2C(=O)O[C@H]([C@H](C)C[C@@H]2CC[C@@H](OCCO)[C@H](OC)C2)CC(=O)[C@H](C)/C=C(\C)[C@@H](O)[C@@H](OC)C(=O)[C@H](C)C[C@H](C)/C=C/C=C/C=C/1C [everolimus] + COc1ccc(COc2ccc(Cc3cnc(N)nc3N)cc2OC)cc1 [GW2580] (first compound 0.02 µM, partner dose 1 µM)",247%,39.8%,65.6%,47%,362%,119%,149%,130%,266%,134%,77%,183%,153%,35%,47.7%,118%,–,–,–
"CN1CCN(c2ccc3nc(-c4c(N)c5c(F)cccc5[nH]c4=O)[nH]c3c2)CC1 [Dovitinib] + CCCCCCCCCCCC1=C(O)C(=O)C=C(O)C1=O [Embelin] (first compound 0.1 µM, partner dose 1.2 µM)",204%,16.2%,118%,86.9%,112%,110%,63.2%,161%,134%,71%,108%,113%,49.9%,87.7%,152%,151%,–,–,–
"Cn1c(=O)n(-c2ccc(C(C)(C)C#N)cc2)c2c3cc(-c4cnc5ccccc5c4)ccc3ncc21 + CC(C)CCN1c2nc(Nc3cc(F)c(O)c(F)c3)ncc2N(C)C(=O)C1C [BID1870] (first compound 0.004 µM, partner dose 0.2 µM)",56.2%,75%,49.4%,72.6%,33.7%,96%,7070%,77.9%,231%,46.1%,39.3%,80.5%,48.4%,112%,127%,91.3%,–,–,–
"Cc1cc(Nc2cc(N3CCN(C)CC3)nc(/C=C/c3ccccc3)n2)n[nH]1 + O=C(O)C(=O)Nc1sc2c(c1C(=O)O)CCNC2 [TCS401] (first compound 0.04 µM, partner dose 1.66667 µM)",198%,51.2%,114%,148%,57.1%,95.8%,44.6%,97.4%,92.4%,116%,187%,21.4%,58.7%,75.6%,122%,73.4%,–,–,–
"C=C(c1ccc(C(=O)O)cc1)c1cc2c(cc1C)C(C)(C)CCC2(C)C [Bexarotene] + Oc1nc(-c2ccc(C(F)(F)F)cc2)nc2c1CSCC2 [XAV939] (first compound 2 µM, partner dose 2 µM)",66.3%,1190%,89.2%,137%,52.6%,93.4%,67.3%,120%,93.2%,122%,117%,51.2%,49%,69.7%,123%,50.6%,–,–,–
"Nc1ncn([C@H]2C[C@H](O)[C@@H](CO)O2)c(=O)n1 [decitabine] + COc1ccc(-c2ccc3c(N4CCOCC4)nc(N4C[C@@H](C)O[C@@H](C)C4)nc3n2)cc1CO [KU0063794] (first compound 0.1 µM, partner dose 0.02 µM)",83.5%,29%,392%,39.4%,139%,116%,129%,92.6%,125%,116%,174%,210%,106%,315%,44.8%,241%,–,–,–
"CN1CCN(c2ccc3nc(-c4c(N)c5c(F)cccc5[nH]c4=O)[nH]c3c2)CC1 [Dovitinib] + COc1ccc2c(c1)CCC1C2CCC2(C)C(NCCCCCCN3C(=O)C=CC3=O)CCC12 [U73122] (first compound 0.1 µM, partner dose 0.4 µM)",61.1%,26.2%,402%,86.5%,66.7%,108%,105%,231%,116%,92%,116%,90.4%,28.4%,170%,27.5%,141%,–,–,–
"CNC(=O)c1cc(Oc2ccc(NC(=O)Nc3ccc(Cl)c(C(F)(F)F)c3)cc2)ccn1 [sorafenib] + COc1cc2ncnc(Nc3ccc(Oc4ccccc4)cc3)c2cc1OC [SrcI1] (first compound 0.4 µM, partner dose 2 µM)",152%,37%,91.7%,88.5%,55.8%,83.1%,29.2%,92.2%,169%,62.5%,80.4%,44.5%,200%,48.3%,114%,51%,–,–,–
"CN1CCN(c2ccc3nc(-c4c(N)c5c(F)cccc5[nH]c4=O)[nH]c3c2)CC1 [Dovitinib] + Oc1nc(-c2ccc(C(F)(F)F)cc2)nc2c1CSCC2 [XAV939] (first compound 0.1 µM, partner dose 2 µM)",59.2%,31.9%,185%,166%,108%,107%,127%,95.3%,140%,113%,67.6%,133%,83.3%,151%,38.1%,127%,–,–,–
"Nc1nc(F)nc2c1ncn2[C@@H]1O[C@H](CO)[C@@H](O)[C@@H]1O [fludarabine] + COc1cc2ncnc(Nc3ccc(Oc4ccccc4)cc3)c2cc1OC [SrcI1] (first compound 0.2 µM, partner dose 2 µM)",1200%,38.2%,52.7%,157%,171%,96%,63.8%,229%,88%,40.7%,117%,158%,52.5%,120%,57.3%,59.7%,–,–,–
"Cc1cc(Nc2cc(N3CCN(C)CC3)nc(/C=C/c3ccccc3)n2)n[nH]1 + C[C@@H](Oc1cc(-c2cnn(C3CCNCC3)c2)cnc1N)c1c(Cl)ccc(F)c1Cl [Crizotinib] (first compound 0.04 µM, partner dose 0.2 µM)",183%,50.8%,155%,–,195%,208%,122%,115%,112%,66%,59.9%,120%,55.7%,96.8%,102%,142%,128%,60.4%,61.9%
"CO[C@H]1C[C@@H]2CC[C@@H](C)[C@@](O)(O2)C(=O)C(=O)N2CCCC[C@H]2C(=O)O[C@H]([C@H](C)C[C@@H]2CC[C@@H](OCCO)[C@H](OC)C2)CC(=O)[C@H](C)/C=C(\C)[C@@H](O)[C@@H](OC)C(=O)[C@H](C)C[C@H](C)/C=C/C=C/C=C/1C [everolimus] + COC(=O)c1sccc1S(=O)(=O)Nc1ccc(Nc2ccccc2)cc1OC [GSK0660] (first compound 0.02 µM, partner dose 1 µM)",225%,76.5%,155%,37.3%,328%,111%,26.2%,90.8%,273%,65.3%,66.3%,124%,28.7%,109%,89.2%,105%,–,–,–

# 2 successive entries already listed, quoted:
SMILES,cleaved PARP positive nuclei fraction (501Mel),cleaved PARP positive nuclei fraction (A101D),cleaved PARP positive nuclei fraction (A2058),cleaved PARP positive nuclei fraction (C32),cleaved PARP positive nuclei fraction (CBRC008),cleaved PARP positive nuclei fraction (CBRC014),cleaved PARP positive nuclei fraction (CBRC016),cleaved PARP positive nuclei fraction (CBRC017),cleaved PARP positive nuclei fraction (COLO792),cleaved PARP positive nuclei fraction (COLO800),cleaved PARP positive nuclei fraction (COLO829),cleaved PARP positive nuclei fraction (G361),cleaved PARP positive nuclei fraction (IPC-298),cleaved PARP positive nuclei fraction (IST-MEL1),cleaved PARP positive nuclei fraction (LB2518-MEL),cleaved PARP positive nuclei fraction (LOXIMVI),cleaved PARP positive nuclei fraction (A375),cleaved PARP positive nuclei fraction (CBRC034),cleaved PARP positive nuclei fraction (MEL-HO)
"Cn1c(=O)n(-c2ccc(C(C)(C)C#N)cc2)c2c3cc(-c4cnc5ccccc5c4)ccc3ncc21 + CC(C)CCN1c2nc(Nc3cc(F)c(O)c(F)c3)ncc2N(C)C(=O)C1C [BID1870] (first compound 0.004 µM, partner dose 0.2 µM)",56.2%,75%,49.4%,72.6%,33.7%,96%,7070%,77.9%,231%,46.1%,39.3%,80.5%,48.4%,112%,127%,91.3%,–,–,–
"Cc1cc(Nc2cc(N3CCN(C)CC3)nc(/C=C/c3ccccc3)n2)n[nH]1 + O=C(O)C(=O)Nc1sc2c(c1C(=O)O)CCNC2 [TCS401] (first compound 0.04 µM, partner dose 1.66667 µM)",198%,51.2%,114%,148%,57.1%,95.8%,44.6%,97.4%,92.4%,116%,187%,21.4%,58.7%,75.6%,122%,73.4%,–,–,–
